Publication PMC11036802
These are yes or no findings as the source states them, for the method shown. In cells and extracts the contact can be indirect. A yes stands for co-enrichment or nearness to the bait. Other partners may have been found. Tags and fused reporters may be left off the sequences shown.

T1: PfEAF2::GFP (endogenous PfEAF2 tagged with GFP) (P. falciparum (endogenous in 3D7 parasites)) (UniProt C6KTC1)
T1 sequence: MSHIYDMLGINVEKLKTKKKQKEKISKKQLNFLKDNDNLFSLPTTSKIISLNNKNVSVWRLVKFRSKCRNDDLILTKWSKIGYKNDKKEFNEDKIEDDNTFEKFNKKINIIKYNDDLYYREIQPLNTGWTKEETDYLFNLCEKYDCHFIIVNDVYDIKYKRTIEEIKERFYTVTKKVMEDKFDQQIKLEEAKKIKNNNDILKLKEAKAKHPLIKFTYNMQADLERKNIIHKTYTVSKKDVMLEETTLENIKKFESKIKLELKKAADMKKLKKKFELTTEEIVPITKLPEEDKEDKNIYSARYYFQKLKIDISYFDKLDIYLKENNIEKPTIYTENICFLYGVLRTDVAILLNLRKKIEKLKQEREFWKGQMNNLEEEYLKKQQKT


target: T1, PfEAF2::GFP (endogenous PfEAF2 tagged with GFP) (P. falciparum (endogenous in 3D7 parasites)); experiment: affinity purification with mass spectrometry; single-step pulldown of PfEAF2::GFP with GFP-trap beads from lysates of 10^9 parasites; LC-MS/MS, same SAINT thresholds; three replicates

Row | binding | Binder
1 | binds | PfSWC2 (protein, UniProt Q8IKJ7 1-705) MTKKRGDGVKSISFVLEKESNNIMFDKINEEQDETEEESEMNVDESSENEYLENVSEENESGDNQTGENDSEEEDSEEDEDYELKNYGIALELPQRKNRGKNMKKLIGEDLEKDEQFWNDSIWEEEEIDEEYVNSEGEDEYVDITDSDFDDDEDNEEDEEEEVDDDEQNKRGARRHSIEYEERKNNNKKNFAYLEKLKKEKQNKIMKYNLMKQKQNELKKNKQLISNKSKKSEDDAEEEQKEEVIKTKEQLKEERRLKKKKKLEQAYLYLNRSTRDTTRRKTEYMEKVFEMRKIKKENRFKKFGARRREKKNMQREMTREERLEEAKITEQYNIQSLLQLQAWEEEKKKYIENKKVIHYKPQNVFISFKYSKDNIFPTNEKLTYTQNLYDYYLYNENRTIKNDIMNQVKKEINVNIINNKQIVKVEQELHNNHEENINSQKKNSSMSINIPPPIIPDNKEKQINNDKNTILSNRNLNDNTNDYPNDYPNDYPNDNTKDEEKNGLILNPMNLENLDQCEDLNIQYLSQIDDINFDNLNKNKSNNNNNNNILNSNNENMYDDNKNKSNVLNQDIKKNKILAIPNYEEKQYYIVTNENELNIYSNFNDQKDNIKELKNQKQEKQKICAITNLEGKYFDPLTQQYYNNAEAFKKLRLYYHQISYNNLNKDICLTVKHFKNKLAEIEQYVNSNNNHNSCNDIPCNNNVKH
2 | binds | PfRVB2 (protein, UniProt Q8ID85 1-483) MKLEEVKDIQKIERIGAHSHIRGLGLNDCLDARYCSEGMIGQMSARKAAGIVLRMIKEGRISGRAILLAGQPGTGKTAIAMGIAKALGEDTPFTHISGSEVYSLEMSKTEALTQAFRRSIGVRVKEESEVIEGEVVEIEIEKFNERDINNKNKKLGKMILKTTEMETLYDLGSKMIEALQKENITAGDVICIDKGTGKITKIGKSFARSKDYDAMDPNTLFVQCPEGELQKRKEVVHTVTLHDIDAINSRTQGFLALFSGDTGEIKNEIREHIDMKINEWQEDEKAEIVPGVLFIDEVHMLDIECFSYLNRALESEQSPIVIMATNRGITHIRGTDYKAPHGIPLDLLDRTLIIPTYPYKHQDILKILEQRAEEEDVDIDEYAKELLCKIASESSLRYALHLITLANLVSKKRKATEVTVQDVRRVYNLFIDVKRSTQYLIEYQNEFMFSELPKEELSVKEEDSSEEKRELHEKNSENSSTSN
3 | binds | PfRVB1 (protein, UniProt Q8IIU3 1-475) MEINISNITNSSNNKKERVNIHSHIKGLGVNTNIYLHENEISLSDEKYSMFFDNSCGLVGQFKAREASLFLVDLIKQKKLAGKCILLAGPSGSGKSALAIGISREINRKMPFVFLSGSEVYSNEIKKTEVILEAFRKSIHIKIKEEKLVYEGEVVDMVVEENECLYSLNKAKQINAIIITLKSVKGSKTLRLAPKIHEQIAREKIKIGDVIYIETNTGHVKRLGRCNDYAKEYDIEFDEYVSLPKGEVHKKKEVVQQISLHDIDLANANPTVGEDLASVLNSYLRPKKTEITEKLRVEINKTVNKFLESGLAEIIPGVLYIDEAHMLDIECFSYLNRAIESPLAPILIMATNRGICTVKGTDNIEPHGIPVDLLDRLIIIKTFPYTLKEIVQILALRAQTEKINITEEGMNYLAKIGIQSSLRFAMLLLEPSRILATLEGNTIIDIKHIEQADELFMDAKTSAHRVVDQSNKFVN

More lines, now with the values behind:

Row | Binder | binding
4 | PfH2B.Z (protein, UniProt Q8IBV7 1-123) MSGKGPAQKSQAAKKTAGKTLGPRHKRKRRTESFSLYIFKVLKQVHPETGVTKKSMNIMNSFINDIFDRLVTEATRLIRYNKKRTLSSREIQTAVRLLLPGELSKHAVSEGTKAVTKYTTSAA | binds
5 | PfARP6 (protein, UniProt Q8IBQ9 1-1032) MSAPVNIDIPKLILDNGAGLIKGGILPSYSQIEGSLCEEIEPKFILPNCVGQIRKKNIFHISDSCQSICEYFCHRPHVDGLLLDLELETKIWEKIFSCRNTVGGKINEMGLCVTESYLTPAYIKQGVIELLFEYFNMNQIVIVSSQTMLPFSYIGLNLGQYDILNPPIYRSRSSITKKVDQVIKRRRRSENCDIDMNKLDSSKDNMMENNLVTDSVINIKKLGSMDKTNEENVNSMNSVNNVNNFIDDNSYESKKIRLSQESVDHNKFNENKGDPINIQKDNVFAQDDDKNIEDVEKYENSGHTFEKRRYNKKNTKSDVNIFTNKHIYLKNIECYNKYSHKLYIDDKYQGDNWEDFYFNSFFNLNNYNNNNIYDDDNNNNNYLFEGLKTHAKSYKFNNNNVVRTLYDNNYLGKNFSRQDPNFIIPEKVDLYRNYYGKNFQDIKMFKKNYRNKYINNFYKNIINGNYNLSLRNPCALYIDVGFSHTYVLPYIEYKLIEYAVLRTKISGSILNSYLKSTLSYKHVNLEHNELLVENIKERACYVSLDYLKELEKEKTRLENIKNQRIKDKLDMRAEILMKELEEEEAQGKGERDKEKKKEMDTNMEKKKMKKKKKKKESDLLTNSLVKEDESNSTINDMKVNEKDNSDVTEYKENSSNSYDKKMNNILTKKKNDSCGSSLSVSNKSDDDMYIKKRRTCNVEEGGVDITEDQSYMSDLKSNVSVDKSRKSSRSNINVDKSYTNDEDNKSNYNNNSDDNNNNSDDNNKYSDDNNKYSDDSNEYSDDSNNNNNNNNKYSDDSNKYSDDNNKYNIDKCNGRKNKKLQPHLSYQYKLIDYNNVSKRQINKVFNTLKSNYNNNCIYIDSDYDYKEEFSNFIIDDKDDNMNIKDMSIKVGDSSKGKEDVINLTNERIGIPEILFNPQDINLEHCSIVELVYRCISLLPKHIQKYFVSQIYISGGSTKFRNFKHRLYKELRQVFPSDWDINIYSHKNSLYSNYIGTYVWLSDPSIYNYNVITREQYFNFGKESKVWNRKKDA | binds
6 | PF3D7_0505600, homolog of SWC5 (protein, UniProt Q8I446 1-333) MATILTMQFPSSDEEDEDYFVDEENDNDDEDDDDNNNNNNNNEHNNNEHNNDQHNNNVHNNDQHNNNHMKTIRKKRKGRCKDIKNSIKKSIIKEKIEKTYKDINLEYKQLYSHESNIRNGDFLLQFHKKDPQICKKYNSIDKLYNHLNKYCSIEQDNKNIKNNNQQQNDNHVNNDEDHYSQHYITMKEYKKKSRNDQYVNEIHNNHLVKSALDNFYDNNSIHVEKKYMYAGKIFTIKKKIDKTSASYKRYLKTQDKINIGGNFSNIDELIQNIQEQKQINTIDKSSEDWKQYKLINLVDDDKLKKNQHYLENKFFEENVERRVYENKIKKLHK | binds
7 | PfMYST (protein, UniProt Q8III2 1-608) MVLGGKNENKVNVIKGAGSIGKYIMKENGSKIKEVGEWNNSSENENSDNNNNDREDNIKEKVDNNNKNDDNNNNDREDNIKEKVDNNNNNDDNNNDNNNNNKSDNNNNKSDNNNNKSDNYNNKIGDVSNIPSTNTSTVSNKIQGKGSVSYKSKEKTGDHSSNNKNTKGNNNKVRTSGKVINSLSKYSDSYALIFPNALPVKQVLWGLDPLNKVWRYCSIVYARPKNKVLNDTNFMFPLNMNKNEIINKVNNELNNNNSVSMSEGDYDYYVHWEKFDRRLDCWLAYENLRLLDKEPDDGLPLIKDNDNVSDHEHAGIDKEYLREHEENTKLKTINQIRFGKYLIDTWYFSPYPKEYQNIDILYICEFCLSFFKEYSELKRHIEKCEIRHPPGNEIYREEKISIFEIDGSYFRIYCENLCFLSKLFLDHKTLKHRVNLFLFYVITEYDEYGYHITGYFSKEKYSKNNVSCILTLPQHQKKGYGKFLINFSYFLSQTEKRTGTPERPLSDLGVASYMAYWYETILKVLINYEQLSIQELSEITSIETNDIISCLEEKDIFKNSLNGLDSFYYINPKQLEFILNKLKQTNNTQLSKNKLHWVSYDYYLALYE | binds
8 | PfBDP1 (PF3D7_1033700), homolog of Bdf1 (protein, UniProt Q8IJ72 1-488) MMLEDFNTLPLIKSIREDSLDDVLKFLENNYKDYEVNENGEAKKTIELVDKQTQATPLFYVTARKSDEESVEISKLIIEKYAICNPISKDLMKQTCLFYAAREGHLNLCNYLIEKGCNPNDQDNFGQTCLFYASREGKTDCVLTLIKKGANPNLLDLNKQTCLFYACRDGRYDTVKCLLENGVNPSIKDAQRRTALTFAKGNGHNNIINLLKNVGTLSRSSIDSNAQLGNITMLRRNSSSYIAASSPNESNLNNLTVQAENVSNVNLKTEDNQLRKKYKLQYKPLSDEDPLLWVDAPLIKIKEFERKFPELALWPRNVSQSNVEVNNANDAFNKQWYLLANQLILSLSKYEGGHIFEKLVDAKKQNCPDYYDVIKNPMSFSCIKTKLKKGQYAYPSEFVKDVQLIFDNCSLYNTSNSVVAITGKNIETYFNNQLIVMGYNNFILKEKKINDMLKLVEEENIKWSKEKEDQIEEIDELENNQEDSSKKD | binds
9 | PF3D7_1415900, homolog of SWC6 (protein, UniProt Q8ILT7 1-146) MGRRPLDKNLKKEKNVKVIKKRKRKKGSDSDDDDDDIEIANTNVPINKNVSTKFKQREKVDINLILAQDEEDAFKTKTYCWTKVNAGNTSLVKRKLCTVCGFEGKYKCLKCFEHKPTSFVRYTCSLNCKKIHDESSCCKSKMLGTW | binds
